From article PMC2816692, “Structural and Biochemical Characterization of SrcA, a Multi-Cargo Type III Secretion Chaperone in Salmonella Required for Pathogenic Association with a Host” (PLoS Pathogens, 2010)

Chains of the proteins cited; added tags and fusions are not shown. Lines headed by an entry give the natural chain unless they say otherwise; changes in a name come on top.
UniProt Q8ZNP3: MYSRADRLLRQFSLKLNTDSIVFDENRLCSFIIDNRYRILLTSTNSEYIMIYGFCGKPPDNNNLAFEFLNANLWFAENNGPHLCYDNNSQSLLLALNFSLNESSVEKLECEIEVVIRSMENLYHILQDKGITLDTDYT

Molecular target: SrcA-FLAG (chromosomal srcA-FLAG allelic replacement) (Salmonella enterica serovar Typhimurium strain SL1344) (UniProt Q8ZNP3)
Assay: affinity purification with mass spectrometry; anti-FLAG M2-agarose immunoprecipitation of SrcA-FLAG from mixed heavy and light SILAC lysates of S. Typhimurium grown in SILAC-LPM; 16 h at 4°C; quantitative LC-MS/MS

B1: SseK2 (STM2137) (protein, UniProt Q8ZNP4 1-348)
chain: MARFNAAFTRIKIMFSRIRGLISCQSNTQTIAPTLSPPSSGHVSFAGIDYPLLPLNHQTPLVFQWFERNPDRFGQNEIPIINTQKNPYLNNIINAAIIEKERIIGIFVDGDFSKGQRKALGKLEQNYRNIKVIYNSDLNYSMYDKKLTTIYLENITKLEAQSASERDEVLLNGVKKSLEDVLKNNPEETLISSHNKDKGHLWFDFYRNLFLLKGSDAFLEAGKPGCHHLQPGGGCIYLDADMLLTDKLGTLYLPDGIAIHVSRKDNHVSLENGIIAVNRSEHPALIKGLEIMHSKPYGDPYNDWLSKGLRHYFDGSHIQDYDAFCDFIEFKHENIIMNTSSLTASSWR
binding: no binding

No constants are given. Whether binding was seen depends on the method and setting. In cells and extracts the contact can be indirect. Here binding means that the protein was enriched with, or labelled near, the bait; the list need not be complete. A no says only that the protein was not detected with the bait.
